Results as given in US20240181006A1, “POLYPEPTIDES BINDING ADAMTS5, MMP13 AND AGGRECAN” (Merck Patent GmbH, priority 2017, published 2024).
Results are given in words; binding and its absence hold for the method and conditions named. Binding can be weak; no strength is given.

Target: guinea pig ADAMTS5 (guinea pig)
Experiment: SPR off-rate analysis

binding: binds
B1: anti-ADAMTS5 ISVD 02F03 (VHH)
VHH: EVQLVESGGGVVQPGGSLRLSCAASGRTVSSYAMGWFRQAPGKEREFVAGISRSAERTYYVDSLKGRFTISRDNSKNTVYLQMNSLRPEDTALYYCAADLDPNRIFSREEYAYWGQGTLVTVSS
